In patent publication US20100197650A1, “COMPOSITIONS AND METHODS OF TREATMENT COMPRISING CEFTAROLINE” (FOREST LABORATORIES HOLDINGS LTD., priority 2008, published 2010):
At least one compound was matched to its structure with a doubt left.

System: 10 randomly selected clinical isolates (E. coli, K. pneumoniae, E. cloacae, P. aeruginosa)
Test: Time-kill curve analysis at ¼ MIC (Example 2), summary over the 10 selected isolates
Conditions: 24-h

## CCO/N=C(\C(=O)N[C@@H]1C(=O)N2C(C(=O)[O-])=C(Sc3nc(-c4cc[n+](C)cc4)cs3)CS[C@H]12)c1nsc(N)n1 [Ceftaroline]
  bactericidal activity of drug alone: not bactericidal
